The text below walks through data of PMC9241232.

Results are given in words; binding and its absence hold for the method and conditions named. Binding can be weak; no strength is given. Sequences can lack the tags named with a protein.

The target of assay [1] is T1, HrpA-M2 sub-region, Gal4 DNA-binding domain fusion (Neisseria meningitidis strain MC58) (UniProt C0KXI4).
T1 sequence: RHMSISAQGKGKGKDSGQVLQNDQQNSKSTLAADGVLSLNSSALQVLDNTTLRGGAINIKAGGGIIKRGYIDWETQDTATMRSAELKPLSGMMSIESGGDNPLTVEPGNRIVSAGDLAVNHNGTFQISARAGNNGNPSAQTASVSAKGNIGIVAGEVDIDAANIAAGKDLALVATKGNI
Nature of the assay: two-hybrid; specificity tests: AH109 co-transformed with pGBKT7-HrpAM, -HrpAM1, -HrpAM2 or -HrpAM3 and the isolated prey plasmids; growth on -WL, -HWL and -AHWL media; empty vectors as negative control.

Assay [2] has as its target T2, HrpA middle region (HrpA-M), Gal4 DNA-binding domain fusion (Neisseria meningitidis strain MC58) (UniProt C0KXI4).
T2 sequence: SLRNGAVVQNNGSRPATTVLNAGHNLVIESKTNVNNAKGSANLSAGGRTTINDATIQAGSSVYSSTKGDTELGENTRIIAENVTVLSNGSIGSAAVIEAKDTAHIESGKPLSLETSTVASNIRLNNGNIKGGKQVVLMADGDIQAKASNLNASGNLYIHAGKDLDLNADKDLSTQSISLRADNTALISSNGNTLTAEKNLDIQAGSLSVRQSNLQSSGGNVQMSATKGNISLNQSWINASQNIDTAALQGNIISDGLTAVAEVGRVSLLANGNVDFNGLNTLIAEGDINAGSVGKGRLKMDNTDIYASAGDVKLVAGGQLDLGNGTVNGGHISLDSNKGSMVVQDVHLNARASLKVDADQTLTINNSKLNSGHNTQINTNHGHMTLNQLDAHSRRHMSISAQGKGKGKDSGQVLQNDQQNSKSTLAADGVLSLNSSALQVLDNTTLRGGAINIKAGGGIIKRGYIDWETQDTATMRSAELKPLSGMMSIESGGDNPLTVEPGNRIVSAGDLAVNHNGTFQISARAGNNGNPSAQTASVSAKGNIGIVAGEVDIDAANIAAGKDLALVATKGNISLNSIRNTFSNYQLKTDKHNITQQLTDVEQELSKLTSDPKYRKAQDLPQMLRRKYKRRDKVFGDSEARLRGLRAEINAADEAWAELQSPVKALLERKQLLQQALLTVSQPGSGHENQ
The assay is described as above.

Assay [3] deals with T3, HrpA-M1 sub-region, Gal4 DNA-binding domain fusion (Neisseria meningitidis strain MC58) (UniProt C0KXI4).
T3 sequence: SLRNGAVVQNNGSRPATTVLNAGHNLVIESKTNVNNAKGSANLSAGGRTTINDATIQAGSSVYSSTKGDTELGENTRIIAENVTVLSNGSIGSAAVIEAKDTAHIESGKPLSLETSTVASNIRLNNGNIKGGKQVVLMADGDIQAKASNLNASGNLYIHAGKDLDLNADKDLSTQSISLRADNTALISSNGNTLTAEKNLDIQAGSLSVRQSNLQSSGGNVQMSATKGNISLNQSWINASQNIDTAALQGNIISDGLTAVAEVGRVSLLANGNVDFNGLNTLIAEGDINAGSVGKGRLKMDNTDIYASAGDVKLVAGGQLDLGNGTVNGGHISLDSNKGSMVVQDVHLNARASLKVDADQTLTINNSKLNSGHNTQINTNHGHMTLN
Described as above.

The target in assay [4] is T4, HrpA-M3 sub-region, Gal4 DNA-binding domain fusion (Neisseria meningitidis strain MC58) (UniProt C0KXI4).
T4 sequence: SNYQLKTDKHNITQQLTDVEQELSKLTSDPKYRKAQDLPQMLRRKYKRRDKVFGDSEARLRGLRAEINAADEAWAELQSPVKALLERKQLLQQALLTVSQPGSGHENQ
The assay is described as above.

In assay [5] the target is T2, HrpA middle region (HrpA-M), Gal4 DNA-binding domain fusion (Neisseria meningitidis strain MC58). Nature of the assay: two-hybrid; library screen: bait Gal4 DNA-binding domain-HrpA-M (pGBKT7-HrpAM) against a HeLa cDNA library (pGADGH) and a human fetal liver cDNA library (pACT-2) in yeast AH109; selection on SD lacking histidine, leucine and tryptophan, then also adenine; beta-galactosidase activity.

For “Fibrinogen alpha-chain (FGA), Gal4 activation domain fusion (human) (domain or fragment)”, the binding result in assay [1] is “no binding”; in assay [2], “binds”; in assay [3], “binds”; in assay [4], “binds”; in assay [5], “binds”.

Consider “Inter-alpha-trypsin inhibitor heavy chain 3 (ITIH3), Gal4 activation domain fusion (human) (domain or fragment)”, for which the binding entry in assay [1], in assay [2], in assay [3], in assay [4] and in assay [5] was “binds” each time.
